Literature values, collected in patent publication US20090137653A1, “SUBSTITUTED BENZYLAMINES AS CYP2A INHIBITORS AND USES THEREOF TO TREAT NICOTINE DEPENDENCE” (INFLAYZME PHARMACEUTICALS LTD., priority 2005, published 2009).
Some results were stated once for a whole list of compounds, not compound by compound.

Conditions: in vivo

COc1c2occc2cc2ccc(=O)oc12 [methoxsalen]
half-life: 1 to 3 h
